{
  "source": "patent US6939946B2",
  "about": "(Eli Lilly and Company, priority 1998, dated 2005)",
  "test": "general procedure: solution-phase peptide synthesis; DCC/N-hydroxysuccinimide active ester; PyBOP/diisopropylethylamine; hydroxybenzo",
  "conditions": "coupling step",
  "data": [
    {"substance": "DiBOC silyl (-L-)-(α)-N-BOC-2,3-diaminopropionic acid-(-L-)-(α)-N-CBZ-(β)-N-trifluoroacetyl 2,3-diaminopropionic acid linear heptapeptide", "values": [
      {"measurement": "step yield", "result": 56, "unit": "%"}
    ]}
  ]
}
